Results on five molecules are retold here after patent CN110938146A.

By UniProt entry, the sequences of proteins in these tests, tags left out. Residues count along the entry.
UniProt Q8TDQ0, residues 22-200: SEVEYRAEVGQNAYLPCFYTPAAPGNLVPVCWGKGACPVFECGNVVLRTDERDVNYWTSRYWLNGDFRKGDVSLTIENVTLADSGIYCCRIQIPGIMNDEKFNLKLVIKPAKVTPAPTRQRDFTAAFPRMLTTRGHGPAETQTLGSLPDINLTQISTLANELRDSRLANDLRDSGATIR

Changes are numbered by the printed parent chain. Results are given in words; binding and its absence hold for the method and conditions named. Some results given as binding are weak or reduced against the parent protein; the word gives no strength.

First the molecules themselves.
B1: TIM-3-CX123 (VHH)
VHH: QKQLMESGGRLVTPGGSLTLTCTVSGIDLSSYAMGWVRQAPGKGLEWIGAISSSGNTYYASWAKGRFTISKTSTTVDLRITSPTTEDTATYFCAREGASSDGIYYNLWGQGTLVTVSS
B2: TIM-3-CX153 (VHH)
VHH: QSMEESGGRLVKPDETLTLTCTVSGFSLSSYSMIWVRQAPGKGLEWIGIIGTTGNTYYASWAKGRFTISKTSTTVDLKMTSLTSEDTATYFCARYYADGVFDLWGQGTLVTVSS
B3: TIM-3-CX101 (VHH)
VHH: QVQLVQSGGGLVQPGGSLRLSCAASEWTKQVPEMSWVRQAPGKGLEWIGSIYHSGSTYYNPSLKSRVTISRDNSKNTLYLQMNTLRAEDTATYYCARVSFDRFDYWGQGTLVTVSS
B4: TIM-3-CX106 (VHH)
VHH: B3 VHH with K29R, Q30A
B5: TIM-3-CX119 (VHH)
VHH: B3 VHH with K29R, Q30V

The first assay has as its target TIM-3重组蛋白 (human) (UniProt Q8TDQ0). Nature of the assay: competition ELISA on coated TIM-3; competitor biotinylated Galectin-9-rFc.
B1: the binding entry was “binds”. Same read-out and setting: next, B2: “binds”.

The target is the same in another assay. Nature of the assay: ELISA: TIM-3 coated, biotinylated sdAb, HRP-streptavidin. (In an ELISA, binding on a coated surface is turned into a signal by an enzyme label.)
As to B3, the binding result is “binds”. The same measure, in the same setting: the entry for B4 is “binds”; for B5 it is “binds”. On the same count and under the same terms, the entry for B1 is “binds”; for B2 it is “binds”.
